The results are deposited in PubChem (AID1159506; NCATS, 2015).

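Genome-wide siRNA knockdown in TC32 Ewing sarcoma cells, comparing luciferase light from an NR0B1-promoter reporter with a CMV-promoter reporter 48 hours after transfection.
Each siRNA was applied at 20 nM.
A z-score of the log NR0B1-over-CMV signal, less the median of siRNAs with the same seed; more negative means a stronger specific loss of the NR0B1 reporter.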

This is part of the screen; most of the strongest results are not listed here.
Sequences are the guide (antisense) strand, without overhang.

Sequence	target gene	seed-corrected z-score
UUCAUACUCGAUUUUGUUG	C17orf105	0.4413
AGAUCGAUCAAUGUACCGG	LINC01521	-0.3582
UAAAGGUCAUCCUUCUCGC	TGOLN2	3.111
UACGAUACUCUGAUUUAUC	NCAPD3	-0.4442
UGUAAUUAAAAUCAUCACC	SEC22A	-0.04024
UAUCCAUCAAGGUAGAAGC	CCDC109B	-0.1823
UGAAGUACAGGUCUGUCCG	RERE	0.4767
UUAGAAAACGAAGCAUUGC	GADD45G	0.5693
UUAUCUAUGACACCCACCA	FGFBP3	0.01222
AUUGGUCAGAGUUACAUGG	FBXO44	-0.9765
UCUCGAUGAAGGGAAGUUC	LRRCC1	0.4945
UACGGGUCGAACUUCACGG	TH	-1.435
UACUUGAAUAUCUUGAUCC	PKD2L1	-0.6052
UUGUGGAUGAUGGAGCGGC	RPS28P3	-0.1168
UUCUAUCUAAUCAUGAUUC	RBM22P1	-0.6545
UUGGUAUAGACAAACGAUG	AMOT	1.483
UUGGAAGGAAUCACGGUGG	C8orf46	0.8095
AUAGGAAAUUGCUUGCUGG	OLR1	0.005603
AACUCUAAGAAGAUUAUCG	ADAM28	-0.5063
UGGGAUCUCAUAUCCACCC	KLC4	0.5341
UGGGCUAAAAUUAGGGUGU	LINC00917	0.1491
UAUGUAACCAGUUUAAGGG	PIGB	0.02206
UAGAGUCUUCCUUUGUUGC	RUFY4	0.4166
AAAGUUGUAGUUGGAAGGC	DPH1	0.3656
UUAGUGUUGGUCAUCUUGU	ARHGAP1	0.1764
UUCCUUGUGAAAUUGCUGG	NONO	-1.289
UCUUUGCAAAUGGUUCUGG	GPRIN3	-1.179
UAUGAGGUGGAUAACUUAG	LOC729900	-0.02132
ACAUUAAUGAGCACAAGGC	NDRG3	0.3363
UCUGGAGAAUGAAACAUUC	PSG2	-0.143
UAAUGUAUGCCCUUUUUGU	S100A7A	-0.4535
UUUCUUUCUCGCCUUCUUC	CLLU1OS	1.666
AAUUUGAUCCUGUAGAAUC	BEND7	-0.2171
AACCGAUUCACGUUCAAGC	SIK3	-0.9819
UUGUUGUCGAUGACGAAGC	CACNA2D4	-0.9323
UGUUGUAAAGGACCGACCG	ZNF143	1.013
UCAUUACUAAUUCAUCAUC	CYP20A1	-0.1503
UUACUGACCAGACAACACC	NLK	0.02969
AAUCCGUUCGCAAAUGAGC	DUT	-0.8006
UUUGGGAUCUACACUCUCC	IL1B	1.096
UUUCUGCUAUCACCAGGUG	FATE1	-1.61
UCUUCAUACUAGGAAAUGC	PELI1	-0.4198
AAUCCCAUUAAUGAUACCC	CLASP2	-0.4957
UGUGGGAUUUCCUCUUUGC	CYGB	0.07615
UUUGUUCGUGUAGAAGUCG	RPS17P10	0.007357
UGAACUAUUGCUAAAGGCC	ZNF583	0.6345
UUUAGAUCUAUGCCUUCUC	SP100	-0.2456
UGUUCUCAAAGUACCCUUG	PPP1R32	0.2988
UUUGAUGCAGUAAUGCUUG	BTC	0.069
UGUGCAGACUGGUUAAAGG	ZNF85	0.6232
UUUGUUCCUCUUGCUUGCG	PSIP1	2.041
UCAGCAGUGAUUCGGACUC	A1BG	1.406
UCGUCUCUAAGUUGAACUC	TIE1	-0.2305
UUACAUUCAUGGGUGUCUG	IL31	0.8135
UCAAAACCUGGGUAUAGGG	ACHE	0.03062
AAUAGCAUCAUAGCCCUGU	RFTN1	-0.594
UAAUUUCAUAAGCAACUCG	FUT8	-0.3732
ACAGGAGCAAGAAUAGAGG	AOAH	1.594

6 of the entries, repeated:

Sequence	target gene	seed-corrected z-score
UUCAUACUCGAUUUUGUUG	C17orf105	0.4413
UCUGGAGAAUGAAACAUUC	PSG2	-0.143
UGUUCUCAAAGUACCCUUG	PPP1R32	0.2988
UUUGUUCGUGUAGAAGUCG	RPS17P10	0.007357
UCUUUGCAAAUGGUUCUGG	GPRIN3	-1.179
UUCCUUGUGAAAUUGCUGG	NONO	-1.289